# Source: the supplement of paper PMC8728848
# This is one part of the list.
# B1: LlpA (Burkholderia cenocepacia) (protein)
# chain: MGSSHHHHHHSSGLVPRGSHKILGSNETLSAGNVVYSDNGQYHLAMQTDGNLVVYGPTGAVWQSQTSGSGGNRAVMQGDGNLVIYRADNTAAWSSKTAHPGAFLAVQDDGNVVIYWPRPAWASNTSDPATQQSAESKYLASGSTMSAGQTVTVAQYMLVFQADGNLVLYKNGGNPIWSTGTQGKGATYAVMQSDGNFVIYAGSTALWSTKTNGANGAQLVLQSDGNLVIYAPTAAWSTKFGLVTAPTSTSTSNNGPGSGICVGVCPPHPLNGNPFSPVGVGTTGLGFPTPGYPGAAF
# Experiments:
# Assay in all cases: glycan array binding signal (z-score within array); higher = stronger binding
# Conditions in all cases: glycan notation: IUPAC condensed, linker removed
# [1] = molecular target: Gal(a1-3)Gal(b1-4)GlcNAc
# Summary of the method: (§1)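 Glycan array data came from 3228 arrays in the Consortium for Functional Glycomics database, and only arrays with an available protein sequence were kept. Glycan names were put into IUPAC-condensed notation, and columns mapping to the same glycan were averaged. The binding signal is a within-array Z-score, averaged across arrays of one protein sequence run at different concentrations or buffers and across linkers. A negative Z-score can be read as non-binding.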
# [2] = molecular target: Gal(a1-3)Gal(b1-4)GlcNAc(b1-2)Man
# Summary of the method: as §1
# [3] = molecular target: Gal(a1-3)Gal(b1-4)GlcNAc(b1-2)Man(a1-3)[Gal(a1-3)Gal(b1-4)GlcNAc(b1-2)Man(a1-6)]Man(b1-4)GlcNAc(b1-4)GlcNAc
# Summary of the method: as §1
# [4] = molecular target: Gal(a1-3)Gal(b1-4)GlcNAc(b1-3)GalNAc
# Summary of the method: as §1
# [5] = molecular target: Gal(a1-3)Gal(b1-4)GlcNAc(b1-6)GalNAc
# Summary of the method: as §1
# [6] = molecular target: Gal(a1-3)Gal(b1-4)[Fuc(a1-3)]GlcNAc
# Summary of the method: as §1
# [7] = molecular target: Gal(a1-3)Gal(b1-4)[Fuc(a1-3)]GlcNAc(b1-2)Man(a1-3)[Gal(a1-3)Gal(b1-4)[Fuc(a1-3)]GlcNAc(b1-2)Man(a1-6)]Man(b1-4)GlcNAc(b1-4)GlcNAc
# Summary of the method: as §1
# [8] = molecular target: Gal(a1-3)GalNAc
# Summary of the method: as §1
# [9] = molecular target: Gal(a1-3)[Gal(a1-4)]Gal(b1-4)GlcNAc
# Summary of the method: as §1
# [10] = molecular target: Gal(a1-4)Gal(b1-3)GlcNAc(b1-2)Man(a1-3)[Gal(a1-4)Gal(b1-3)GlcNAc(b1-2)Man(a1-6)]Man(b1-4)GlcNAc(b1-4)GlcNAc
# Summary of the method: as §1
# [11] = molecular target: Gal(a1-4)Gal(b1-4)Glc
# Summary of the method: as §1
# [12] = molecular target: Gal(a1-4)Gal(b1-4)GlcNAc
# Summary of the method: as §1
# [13] = molecular target: Gal(a1-4)Gal(b1-4)GlcNAc(b1-2)Man(a1-3)[Gal(a1-4)Gal(b1-4)GlcNAc(b1-2)Man(a1-6)]Man(b1-4)GlcNAc(b1-4)GlcNAc
# Summary of the method: as §1
# [14] = molecular target: Gal(a1-4)Gal(b1-4)GlcNAc(b1-3)Gal(b1-4)Glc
# Summary of the method: as §1
# [15] = molecular target: Gal(a1-4)GlcNAc
# Summary of the method: as §1
# [16] = molecular target: Gal(a1-6)Glc
# Summary of the method: as §1
# [17] = molecular target: Gal(b1-2)Gal
# Summary of the method: as §1
# [18] = molecular target: Gal(b1-3)Gal
# Summary of the method: as §1
# [19] = molecular target: Gal(b1-3)Gal(b1-4)GlcNAc
# Summary of the method: as §1
# [20] = molecular target: Gal(b1-3)GalNAc
# Summary of the method: as §1
# [21] = molecular target: Gal(b1-3)GalNAc(a1-3)[Fuc(a1-2)]Gal(b1-4)Glc
# Summary of the method: as §1
# [22] = molecular target: Gal(b1-3)GalNAc(a1-3)[Fuc(a1-2)]Gal(b1-4)GlcNAc
# Summary of the method: as §1
# [23] = molecular target: Gal(b1-3)GalNAc(b1-3)Gal
# Summary of the method: as §1
# [24] = molecular target: Gal(b1-3)GalNAc(b1-3)Gal(a1-4)Gal(b1-4)Glc
# Summary of the method: as §1
# [25] = molecular target: Gal(b1-3)GalNAc(b1-4)Gal(b1-4)Glc
# Summary of the method: as §1
# [26] = molecular target: Gal(b1-3)GalNAc(b1-4)[Neu5Ac(a2-3)]Gal(b1-4)Glc
# Summary of the method: as §1
# [27] = molecular target: Gal(b1-3)GlcNAc
# Summary of the method: as §1
# [28] = molecular target: Gal(b1-3)GlcNAc(a1-3)Gal(b1-4)GlcNAc
# Summary of the method: as §1
# [29] = molecular target: Gal(b1-3)GlcNAc(a1-6)Gal(b1-4)GlcNAc
# Summary of the method: as §1
# [30] = molecular target: Gal(b1-3)GlcNAc(b1-2)Man
# Summary of the method: as §1
# [31] = molecular target: Gal(b1-3)GlcNAc(b1-2)Man(a1-3)[Gal(b1-3)GlcNAc(b1-2)Man(a1-6)]Man(b1-4)GlcNAc(b1-4)GlcNAc
# Summary of the method: as §1
# [32] = molecular target: Gal(b1-3)GlcNAc(b1-2)Man(a1-3)[Gal(b1-3)GlcNAc(b1-2)Man(a1-6)]Man(b1-4)GlcNAc(b1-4)[Fuc(a1-6)]GlcNAc
# Summary of the method: as §1
# [33] = molecular target: Gal(b1-3)GlcNAc(b1-2)Man(a1-3)[GlcNAc(b1-4)][Gal(b1-3)GlcNAc(b1-2)Man(a1-6)]Man(b1-4)GlcNAc(b1-4)GlcNAc
# Summary of the method: as §1
# [34] = molecular target: Gal(b1-3)GlcNAc(b1-2)[Gal(b1-3)GlcNAc(b1-6)]Man(a1-6)[Gal(b1-3)GlcNAc(b1-2)Man(a1-3)]Man(b1-4)GlcNAc(b1-4)GlcNAc
# Summary of the method: as §1
# [35] = molecular target: Gal(b1-3)GlcNAc(b1-3)Gal(b1-3)GlcNAc
# Summary of the method: as §1
# [36] = molecular target: Gal(b1-3)GlcNAc(b1-3)Gal(b1-4)Glc
# Summary of the method: as §1
# [37] = molecular target: Gal(b1-3)GlcNAc(b1-3)Gal(b1-4)GlcNAc
# Summary of the method: as §1
binder,measurement,setting,value
B1,glycan array binding signal (z-score),[1],0.127
same,glycan array binding signal (z-score),[2],-0.491
same,glycan array binding signal (z-score),[3],0.427
same,glycan array binding signal (z-score),[4],-0.196
same,glycan array binding signal (z-score),[5],0.692
same,glycan array binding signal (z-score),[6],0.698
same,glycan array binding signal (z-score),[7],-0.583
same,glycan array binding signal (z-score),[8],-0.618
same,glycan array binding signal (z-score),[9],0.304
same,glycan array binding signal (z-score),[10],1.58
same,glycan array binding signal (z-score),[11],0.481
same,glycan array binding signal (z-score),[12],0.401
same,glycan array binding signal (z-score),[13],0.192
same,glycan array binding signal (z-score),[14],0.212
same,glycan array binding signal (z-score),[15],-0.701
same,glycan array binding signal (z-score),[16],0.038
same,glycan array binding signal (z-score),[17],-0.134
same,glycan array binding signal (z-score),[18],1.25
same,glycan array binding signal (z-score),[19],-0.878
same,glycan array binding signal (z-score),[20],-0.365
same,glycan array binding signal (z-score),[21],1.11
same,glycan array binding signal (z-score),[22],-0.991
same,glycan array binding signal (z-score),[23],1.1
same,glycan array binding signal (z-score),[24],0.971
same,glycan array binding signal (z-score),[25],0.27
same,glycan array binding signal (z-score),[26],0.475
same,glycan array binding signal (z-score),[27],-0.647
same,glycan array binding signal (z-score),[28],-0.386
same,glycan array binding signal (z-score),[29],0.116
same,glycan array binding signal (z-score),[30],0.664
same,glycan array binding signal (z-score),[31],0.708
same,glycan array binding signal (z-score),[32],-0.618
same,glycan array binding signal (z-score),[33],0.388
same,glycan array binding signal (z-score),[34],1.28
same,glycan array binding signal (z-score),[35],-0.418
same,glycan array binding signal (z-score),[36],-0.316
same,glycan array binding signal (z-score),[37],-0.526

# Already shown: an excerpt of the list.
binder,measurement,setting,value
B1,glycan array binding signal (z-score),[1],0.127
same,glycan array binding signal (z-score),[2],-0.491
same,glycan array binding signal (z-score),[3],0.427
same,glycan array binding signal (z-score),[4],-0.196
same,glycan array binding signal (z-score),[5],0.692
same,glycan array binding signal (z-score),[6],0.698
same,glycan array binding signal (z-score),[7],-0.583
same,glycan array binding signal (z-score),[8],-0.618
same,glycan array binding signal (z-score),[9],0.304
